From the supplement of paper PMC4604168 (melanoma cell lines)
Some of the results follow. Many values rest on one well or one pass, so single values are uncertain.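 Cells were imaged in 1,536-well plates, and nuclei stained with an antibody against cleaved PARP were counted against all DNA-stained nuclei to give the apoptosis fraction. Screening doses were chosen to leave most cells alive, and resting and induced cleaved-PARP levels differ strongly between cell lines.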

How the values were obtained:
Assay in all cases: cleaved PARP positive nuclei fraction relative to DMSO control; melanoma cells; higher = more apoptosis
Conditions in all cases: library dose: low library concentration; 72 h
[1] = system: MZ2-MEL
[2] = system: MeWo
[3] = system: RPMI7951
[4] = system: RVH-421
[5] = system: SkMel28
[6] = system: SkMel2
[7] = system: SkMel30
[8] = system: SkMel5
[9] = system: UACC257
[10] = system: UACC62
[11] = system: WM115
[12] = system: WM1716
[13] = system: WM1745
[14] = system: WM3526
[15] = system: WM3619
[16] = system: WM451Lu

| SMILES | cleaved PARP positive nuclei fraction [1] [%] | cleaved PARP positive nuclei fraction [2] [%] | cleaved PARP positive nuclei fraction [3] [%] | cleaved PARP positive nuclei fraction [4] [%] | cleaved PARP positive nuclei fraction [5] [%] | cleaved PARP positive nuclei fraction [6] [%] | cleaved PARP positive nuclei fraction [7] [%] | cleaved PARP positive nuclei fraction [8] [%] | cleaved PARP positive nuclei fraction [9] [%] | cleaved PARP positive nuclei fraction [10] [%] | cleaved PARP positive nuclei fraction [11] [%] | cleaved PARP positive nuclei fraction [12] [%] | cleaved PARP positive nuclei fraction [13] [%] | cleaved PARP positive nuclei fraction [14] [%] | cleaved PARP positive nuclei fraction [15] [%] | cleaved PARP positive nuclei fraction [16] [%] |
| --- | --- | --- | --- | --- | --- | --- | --- | --- | --- | --- | --- | --- | --- | --- | --- | --- |
| Nc1ccn([C@@H]2O[C@H](CO)[C@@H](O)C2(F)F)c(=O)n1 [gemcitabine] + CO[C@@H]1[C@H](N(C)C(=O)c2ccccc2)C[C@H]2O[C@]1(C)n1c3ccccc3c3c4c(c5c6ccccc6n2c5c31)C(=O)NC4 [Midostaurin] (first compound 0.0004 µM, partner dose 0.08 µM) | 152 | 225 | 111 | 76.5 | 54.9 | 178 | 107 | 89.6 | 48.9 | 90.5 | 101 | 136 | 135 | 53.7 | 159 | 47.4 |
| Cc1cc(Nc2cc(N3CCN(C)CC3)nc(/C=C/c3ccccc3)n2)n[nH]1 + Cn1cncc1[C@@](N)(c1ccc(Cl)cc1)c1ccc2c(c1)c(-c1cccc(Cl)c1)cc(=O)n2C [tipifarnib] (first compound 0.04 µM, partner dose 0.01 µM) | 139 | 45.2 | 120 | 168 | 184 | 94.4 | 98.1 | 84.6 | 205 | 101 | 421 | 39.3 | 108 | 74.3 | 97.7 | 95 |
| Nc1ccn([C@@H]2O[C@H](CO)[C@@H](O)C2(F)F)c(=O)n1 [gemcitabine] + Cc1ccc(NC(=O)c2cccc(N(C)C)c2)cc1NC(=O)c1ccc(O)cc1 [ZM336372] (first compound 0.0004 µM, partner dose 2 µM) | 124 | 85.3 | 121 | 77.7 | 66.2 | 57.7 | 145 | 69.5 | 181 | 103 | 67.6 | 64.9 | 115 | 113 | 102 | 178 |
| C=C(c1ccc(C(=O)O)cc1)c1cc2c(cc1C)C(C)(C)CCC2(C)C [Bexarotene] + O=C(Nc1ccccc1)c1cc([N+](=O)[O-])ccc1Cl [GW9662] (first compound 2 µM, partner dose 2 µM) | 3250 | 118 | 61.3 | 196 | 105 | 186 | 35.3 | 87.7 | 23.7 | 100 | 211 | 36.9 | 94.2 | 90.1 | 112 | 457 |
| Nc1ccn([C@@H]2O[C@H](CO)[C@@H](O)C2(F)F)c(=O)n1 [gemcitabine] + Cc1cc([N+](=O)[O-])ccc1NS(=O)(=O)c1cc(Cl)ccc1Cl [FH535] (first compound 0.0004 µM, partner dose 1 µM) | 124 | 195 | 146 | 244 | 124 | 31.3 | 109 | 36 | 223 | 120 | 128 | 160 | 132 | 74.2 | 360 | 121 |
| Nc1ccn([C@@H]2O[C@H](CO)[C@@H](O)C2(F)F)c(=O)n1 [gemcitabine] + c1cc(-c2cnn3cc(-c4ccc(OCCN5CCCCC5)cc4)cnc23)ccn1 [Dorsomorphin] (first compound 0.0004 µM, partner dose 0.4 µM) | 159 | 84.8 | 23.4 | 79.3 | 10.4 | 59.1 | 34.8 | 41.9 | 151 | 70.5 | 44.7 | 43.1 | 125 | 145 | 134 | 151 |
| Nc1ccn([C@@H]2O[C@H](CO)[C@@H](O)C2(F)F)c(=O)n1 [gemcitabine] + COc1ccc(-c2ccc3c(N4CCOCC4)nc(N4C[C@@H](C)O[C@@H](C)C4)nc3n2)cc1CO [KU0063794] (first compound 0.0004 µM, partner dose 0.02 µM) | 137 | 67 | 126 | 141 | 140 | 46.6 | 27.2 | 72.7 | 61 | 52 | 128 | 482 | 151 | 82.6 | 139 | 67.5 |
| C[C@@H](Oc1cc(-c2cnn(C3CCNCC3)c2)cnc1N)c1c(Cl)ccc(F)c1Cl [Crizotinib] + CC(C)(C)c1cnc(CSc2cnc(NC(=O)C3CCNCC3)s2)o1 [SNS-032] (first compound 0.2 µM, partner dose 0.01 µM) | 128 | 54 | 177 | 78.9 | 68.1 | 125 | 237 | 93.7 | 111 | 168 | 76.7 | 67.6 | 100 | 54.4 | 94.1 | 122 |
| C=C(c1ccc(C(=O)O)cc1)c1cc2c(cc1C)C(C)(C)CCC2(C)C [Bexarotene] + Oc1nc(-c2ccc(C(F)(F)F)cc2)nc2c1CSCC2 [XAV939] (first compound 2 µM, partner dose 2 µM) | 103 | 45.3 | 211 | 151 | 118 | 109 | 38.7 | 161 | 111 | 63.9 | 95.4 | 117 | 105 | 77.8 | 93.2 | 70.7 |
| Nc1nc(F)nc2c1ncn2[C@@H]1O[C@H](CO)[C@@H](O)[C@@H]1O [fludarabine] + COc1ccc(COc2ccc(Cc3cnc(N)nc3N)cc2OC)cc1 [GW2580] (first compound 0.2 µM, partner dose 1 µM) | 112 | 361 | 133 | 45.5 | 81.4 | 995 | 224 | 197 | 179 | 53.9 | 123 | 54.4 | 86.5 | 197 | 98.2 | 70.3 |
| CCCS(=O)(=O)Nc1ccc(F)c(C(=O)c2c[nH]c3ncc(Cl)cc23)c1F + Cc1ccc(NC(=O)c2cccc(N(C)C)c2)cc1NC(=O)c1ccc(O)cc1 [ZM336372] (first compound 0.08 µM, partner dose 2 µM) | 94.8 | 194 | 109 | 126 | 239 | 122 | 152 | 43.5 | 174 | 322 | 68.6 | 136 | 100 | 324 | 106 | 69.8 |
| Nc1nc(F)nc2c1ncn2[C@@H]1O[C@H](CO)[C@@H](O)[C@@H]1O [fludarabine] + c1cc(-c2cnn3cc(-c4ccc(OCCN5CCCCC5)cc4)cnc23)ccn1 [Dorsomorphin] (first compound 0.2 µM, partner dose 0.4 µM) | 144 | 1800 | 111 | 38.4 | 188 | 2180 | 3650 | 298 | 200 | 95.8 | 108 | 96.7 | 88.3 | 355 | 96.7 | 1280 |
| Nc1ccn([C@@H]2O[C@H](CO)[C@@H](O)C2(F)F)c(=O)n1 [gemcitabine] + NCC(=O)Nc1ccc(-n2nc(C(F)(F)F)cc2-c2ccc3c(ccc4ccccc43)c2)cc1 [OSU03012] (first compound 0.0004 µM, partner dose 1 µM) | 137 | 91.7 | 215 | 82.1 | 102 | 130 | 115 | 65.9 | 235 | 148 | 43.6 | 224 | 133 | 178 | 128 | 207 |
| CN1CCN(c2ccc3nc(-c4c(N)c5c(F)cccc5[nH]c4=O)[nH]c3c2)CC1 [Dovitinib] + COc1cc(Nc2ncc(F)c(Nc3ccc4c(n3)NC(=O)C(C)(C)O4)n2)cc(OC)c1OC [Tamatinib] (first compound 0.1 µM, partner dose 0.4 µM) | 254 | 80.7 | 102 | 82.4 | 138 | 74.9 | 170 | 96.9 | 115 | 120 | 84.3 | 67.4 | 139 | 63.4 | 103 | 45.9 |
| Cn1c(=O)n(-c2ccc(C(C)(C)C#N)cc2)c2c3cc(-c4cnc5ccccc5c4)ccc3ncc21 + Cc1ccc(NC(=O)c2cccc(N(C)C)c2)cc1NC(=O)c1ccc(O)cc1 [ZM336372] (first compound 0.004 µM, partner dose 2 µM) | 45.9 | 82.1 | 149 | 100 | 62.3 | 68.2 | 67.3 | 144 | 193 | 293 | 109 | 81.2 | 97.1 | 65.6 | 100 | 95.3 |
| CNC(=O)c1cc(Oc2ccc(NC(=O)Nc3ccc(Cl)c(C(F)(F)F)c3)cc2)ccn1 [sorafenib] + Oc1cc(-c2nc(-c3ccccc3)[nH]c2-c2ccncc2)ccc1Cl [L779450] (first compound 0.4 µM, partner dose 0.2 µM) | 85 | 86.6 | 140 | 75.9 | 114 | 61.1 | 371 | 77.7 | 41.9 | 137 | 145 | 71.4 | 110 | 203 | 106 | 35.5 |
| O=C(O)[C@@H]1[O][Sb](=[O])([O][Sb]2(=[O])[O][C@H]([C@H](O)CO)[C@H](O)[C@H](C(=O)O)[O]2)[O][C@H]([C@H](O)CO)[C@@H]1O (stereo partly drawn) [stibogluconate] + c1cc(-c2cnn3cc(-c4ccc(OCCN5CCCCC5)cc4)cnc23)ccn1 [Dorsomorphin] (first compound 2 µM, partner dose 0.4 µM) | 62.5 | 18.5 | 26.7 | 139 | 115 | 19.1 | 35.1 | 83 | 114 | 107 | 87.8 | 61 | 86.2 | 120 | 79.7 | 74.1 |
| CN1CCN(c2ccc3nc(-c4c(N)c5c(F)cccc5[nH]c4=O)[nH]c3c2)CC1 [Dovitinib] + NC(=O)Nc1cc(-c2cccc(F)c2)sc1C(=O)N[C@H]1CCCNC1 [AZD7762] (first compound 0.1 µM, partner dose 0.02 µM) | 73.9 | 70.2 | 182 | 58.8 | 95.6 | 56.5 | 64.9 | 97.9 | 70.9 | 105 | 75.8 | 126 | 99.3 | 227 | 124 | 32.5 |

Single values from the results shown.
Nc1nc(F)nc2c1ncn2[C@@H]1O[C@H](CO)[C@@H](O)[C@@H]1O [fludarabine] + c1cc(-c2cnn3cc(-c4ccc(OCCN5CCCCC5)cc4)cnc23)ccn1 [Dorsomorphin] (first compound 0.2 µM, partner dose 0.4 µM) | cleaved PARP positive nuclei fraction [10] [%]: 95.8
CN1CCN(c2ccc3nc(-c4c(N)c5c(F)cccc5[nH]c4=O)[nH]c3c2)CC1 [Dovitinib] + NC(=O)Nc1cc(-c2cccc(F)c2)sc1C(=O)N[C@H]1CCCNC1 [AZD7762] (first compound 0.1 µM, partner dose 0.02 µM) | cleaved PARP positive nuclei fraction [8] [%]: 97.9
